# Test results taken from US8288552B2, “Dihydropyridone amidesas P2X7 modulators” (Roche Palo Alto LLC, priority 2008, dated 2012).
# The chains behind the UniProt entries cited, without tags or fusion partners.
# UniProt Q99572, whole entry: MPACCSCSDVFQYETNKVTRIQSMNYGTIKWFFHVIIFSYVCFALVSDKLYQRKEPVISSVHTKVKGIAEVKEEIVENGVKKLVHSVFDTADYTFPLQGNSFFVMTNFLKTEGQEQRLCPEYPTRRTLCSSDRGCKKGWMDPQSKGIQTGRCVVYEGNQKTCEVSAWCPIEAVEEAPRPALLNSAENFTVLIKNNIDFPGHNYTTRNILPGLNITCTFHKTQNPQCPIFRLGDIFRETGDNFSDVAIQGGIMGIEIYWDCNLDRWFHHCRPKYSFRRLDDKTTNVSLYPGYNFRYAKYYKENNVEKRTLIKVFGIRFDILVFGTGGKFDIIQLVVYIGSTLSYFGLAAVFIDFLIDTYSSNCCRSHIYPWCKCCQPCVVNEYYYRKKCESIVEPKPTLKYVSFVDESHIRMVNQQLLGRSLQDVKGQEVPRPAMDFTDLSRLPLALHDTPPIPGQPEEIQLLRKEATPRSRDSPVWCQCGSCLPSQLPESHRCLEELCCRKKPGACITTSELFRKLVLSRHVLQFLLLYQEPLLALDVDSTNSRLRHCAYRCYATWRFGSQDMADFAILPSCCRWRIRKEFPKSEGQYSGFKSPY
# The match of structure and compound is tentative.
# Target: P2X7 (UniProt Q99572)
# Assay: P2X7 pKi of Table 1
row,SMILES,pKi
1,COc1cc(C)c(NC(=O)C2=CNC(=O)C[C@@H]2c2cccc(F)c2)cc1OC,6.803
2,Cc1ccccc1CNC(=O)C1=CNC(=O)C[C@H]1c1ccc(F)cc1,5.975
